The series can be described thus: Dyeing test (exhaust dyeing, printing, continuous dyeing) with appearance strength (K/S) measured by spectrophotometer. Particulars: overall K/S value within visible light 300-700 nm.

Turning to `Nc1cc(N)c(S(=O)(=O)O)cc1N=Nc1ccc(S(=O)(=O)CCOS(=O)(=O)O)cc1` [Formula (1)], the “Appearance Strength” value (Table 2, single dye Formula (1) = 100%) was found to be 100%.

As to `NC(=O)Nc1cc(Nc2nc(Cl)nc(Nc3ccc(S(=O)(=O)CCOS(=O)(=O)O)cc3)n2)ccc1N=Nc1cc2c(S(=O)(=O)O)cc(S(=O)(=O)O)cc2cc1S(=O)(=O)O` [Formula (4)], where the note is “Table 5, single dye Formula (4) = 100%”, the “Appearance Strength” value is 100%.

Regarding `CC(=O)Nc1cc(N)c(S(=O)(=O)O)cc1N=Nc1ccc(S(=O)(=O)CCOS(=O)(=O)O)cc1` [Formula (3)], the “Appearance Strength” value (Table 4, single dye Formula (3) = 100%) was 100%.

Regarding `Nc1c(N=Nc2ccc(S(=O)(=O)CCOS(=O)(=O)O)cc2)cc(S(=O)(=O)O)c(N)c1N=Nc1ccc(S(=O)(=O)CCOS(=O)(=O)O)cc1` [Formula (2)], the “Appearance Strength” value (Table 3, single dye Formula (2) = 100%) is 100%.

The values are drawn from patent publication US7540883B2, “Reactive yellow dye composition” (Everlight USA, Inc., priority 2007, dated 2009).
